Values of other authors as cited in US6468757B2, “Method for determining drug-serum protein binding” (priority 2000, dated 2002).

Settings: human plasma; data from Goodman and Gilman's 1996; cited from earlier work

CN1C(=O)CN=C(c2ccccc2)c2cc(Cl)ccc21 [Diazepam, diazepam]
% Bound in Plasma: 98.7 ± 0.2%
